Source: the supplement of paper PMC8007513
The list shows a part of the results. Repeats are few or missing, and single values can be far off.

What follows are compounds tested on Saccharomyces cerevisiae BY4743 (assay: growth (OD600) relative to untreated control; higher = less growth inhibition). Settings: compound concentration: 133 uM; 20 h.
Experimental: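 NMCCC compounds (133 uM, no IPBC) tested alone against Saccharomyces cerevisiae BY4743 in YPD, 96-well plates, starting OD600 ~0.1. Growth was read as OD600 at 20 h and expressed as % of the untreated control. Single pass.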
In the case of CCOC(=O)c1c(C)oc2ncnc(NCc3ccccc3Cl)c12, the growth is reported as 83.9%. COc1cc(Cl)c(C)cc1NC(=O)NCc1noc2ccccc12 gave a growth of 103%. CN(Cc1cnn(-c2ccccc2)c1)C(=O)c1cc(S(=O)(=O)N(C)C)ccc1Cl was tested, and the growth was 100%. In the case of Cc1nc(Cl)cc(NCC2COc3ccccc3O2)n1 (centres undefined), the growth is reported as 97.7%. For CCN(CC)C(=O)Cn1c(S(=O)(=O)Cc2ccccc2)nc2ccccc21, the growth was 83.1%. COc1cccc(C2/C(=C(\O)OC(C)(C)C)C(C)=Nc3nnnn32)c1 (centres undefined) showed a growth of 107%. CC(=O)c1ccc(S(=O)(=O)NCc2csc(-c3ccccc3)n2)cc1 gave a growth of 90.7%. CC1=CC=CC=C1C(=O)N(C\2C[S](=O)(=O)\C=C2)C3=CC=CC=C3 (centres undefined) showed a growth of 100%. With O=C(Nc1ccc(N2CCCC2)cn1)c1ccc(Cl)cc1 the growth was 89.8%. Work on O=C(Cc1csc(NC(=O)NC2CCCC2)n1)Nc1ccc(Cl)c(Cl)c1 yielded a growth of 97.3%. In the case of CC(NC(=O)CN1CCN(Cc2ccc(Br)s2)CC1)c1ccc(F)cc1 (centres undefined), the growth is reported as 96.5%. Compound COCc1cc(O)n2nc(NC(C)=O)nc2n1 has a growth of 106%. Cc1ccc(-c2nnc(SC(C)C(=O)NC(=O)NC(C)(C)C)o2)cc1C (centres undefined) showed a growth of 99.2%. For CCS(=O)(=O)N1CCc2cc(C(=O)COC(=O)c3cc(Cl)ccc3O)ccc21, the growth was 84.7%. For CCOC(=O)c1[nH]nc(C(=O)c2ccccc2)c1-c1ccccc1, the growth was 103%. In the case of Cc1nc2ccccc2nc1NCc1ccnc(OCC(F)(F)F)c1, the growth is reported as 105%. For CCCOc1ccc(CNC(=O)Cn2c(=O)oc3ccccc32)cc1, the growth was 105%. O=C(COC(=O)CCC(=O)c1ccc2c(c1)OCCO2)Nc1ccc(Cl)cc1C(F)(F)F showed a growth of 86%. With CCOc1ccc2nc(SC3CCOC3=O)sc2c1 (centres undefined) the growth was 98.2%. CCN(CC(=O)NC1=CC=C(NC(C)=O)C=C1)C(=O)C/2=N/N(C)C(=O)/C=C2 showed a growth of 108%. CC(NC(=O)CN1\N=N/C2=CC=CC=C2C1=O)C3=CC=CC(=C3)Cl (centres undefined) showed a growth of 111%. CC1=C(N[S](=O)(=O)C/2=C(C)/N=C\3S\C=C/N3C2=O)C(=CC=C1)C gave a growth of 103%. COc1cc(CSc2nnc(C)s2)c(OC)cc1Br showed a growth of 87.5%. COc1ccc(NC(=O)CCc2cccs2)cc1S(=O)(=O)N1CCOCC1 was tested, and the growth was 107%. With CCOc1ccc(NC(=O)C2CCCCN2S(=O)(=O)c2ccc(Br)cc2)cc1 (centres undefined) the growth was 106%. Compound COC1=CC=C(N[S](=O)(=O)C2=CC=C3\N=C/N[S](=O)(=O)C3=C2)C=C1 has a growth of 86.9%. For CC(C)CCNC(=O)CN1C(=O)CSc2ncccc21, the growth was 106%. Cc1nc(C)c(C(=O)OCc2ccc(C#N)cc2)s1 was tested, and the growth was 86%. In the case of CCCn1c(=O)n(-c2ccccc2)c(=O)c2ccccc21, the growth is reported as 106%. Work on COC1=CC=C2[N]3CC\N=C(NCCO)/C3=CC2=C1 yielded a growth of 104%. For CC(=O)N1\N=C(/OC12CCCC2)C3=CC=C(C=C3)C(C)(C)C, the growth was 110%. CC1=CC=C(C=C1C)/C2=C(C)/C(=N\[S]2(=O)=O)NC3=CC=C(Br)C(=C3)C was tested, and the growth was 99.1%. CC(C)(C)c1ccc(C(=O)NCC(=O)OCC(=O)NCc2ccco2)cc1 gave a growth of 105%. For Cc1ccc(Nc2nc(COC(=O)c3nccnc3N)cs2)cc1, the growth was 82.5%. With CCC(=O)Nc1nc2ccc(CCC(=O)Nc3c(Cl)cc(OC)cc3OC)cc2s1 the growth was 102%. For CCOc1ccccc1C(=O)N(Cc1ccc(N(C)C)cc1)c1ccccn1, the growth was 106%. In the case of COc1cc(Br)c(CCNC(=O)c2nnc(O)c3ccccc23)cc1OC, the growth is reported as 109%. With CCOC(=O)c1ccccc1NS(=O)(=O)c1ccc(S(=O)(=O)N2CCCC2)cc1 the growth was 93.3%. Work on CC(Oc1ccc(NC(=O)c2ccco2)cc1)C(=O)NCc1ccc(Cl)cc1 (centres undefined) yielded a growth of 107%.
